Results are given in words; binding and its absence hold for the method and conditions named. Binding seen in cells or lysates may run through a third protein. Some entries that bind do so weakly or less than the wild type.

The chains behind the UniProt entries cited, without tags or fusion partners. Where a name states a change or a piece, a line headed by the entry shows the natural chain unless it says otherwise.
UniProt P05556: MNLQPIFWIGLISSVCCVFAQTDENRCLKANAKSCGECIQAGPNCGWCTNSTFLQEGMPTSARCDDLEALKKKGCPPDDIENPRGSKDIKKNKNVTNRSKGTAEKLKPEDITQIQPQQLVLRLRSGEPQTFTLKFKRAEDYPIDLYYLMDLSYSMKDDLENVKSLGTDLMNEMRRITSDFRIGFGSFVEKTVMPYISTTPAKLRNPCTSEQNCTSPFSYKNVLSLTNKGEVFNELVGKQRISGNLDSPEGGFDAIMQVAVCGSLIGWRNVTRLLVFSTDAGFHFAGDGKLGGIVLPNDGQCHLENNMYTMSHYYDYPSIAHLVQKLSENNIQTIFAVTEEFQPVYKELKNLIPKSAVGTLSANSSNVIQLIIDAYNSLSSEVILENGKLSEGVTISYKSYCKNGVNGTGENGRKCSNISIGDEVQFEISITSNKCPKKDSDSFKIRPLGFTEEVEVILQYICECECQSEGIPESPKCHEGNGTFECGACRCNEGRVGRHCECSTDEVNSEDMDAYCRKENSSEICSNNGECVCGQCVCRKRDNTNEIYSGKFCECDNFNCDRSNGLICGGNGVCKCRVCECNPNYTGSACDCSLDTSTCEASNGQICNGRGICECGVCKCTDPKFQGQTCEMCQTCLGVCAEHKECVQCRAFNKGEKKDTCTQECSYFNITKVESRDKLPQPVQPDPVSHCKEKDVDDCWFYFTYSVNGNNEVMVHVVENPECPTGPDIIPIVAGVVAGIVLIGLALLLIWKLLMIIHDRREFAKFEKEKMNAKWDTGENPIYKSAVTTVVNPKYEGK

The target in the test is T1, Integrin α11 (human (endogenous in MCF-7 and derived TAMR/ADR cells)) (UniProt Q9UKX5).
T1 sequence: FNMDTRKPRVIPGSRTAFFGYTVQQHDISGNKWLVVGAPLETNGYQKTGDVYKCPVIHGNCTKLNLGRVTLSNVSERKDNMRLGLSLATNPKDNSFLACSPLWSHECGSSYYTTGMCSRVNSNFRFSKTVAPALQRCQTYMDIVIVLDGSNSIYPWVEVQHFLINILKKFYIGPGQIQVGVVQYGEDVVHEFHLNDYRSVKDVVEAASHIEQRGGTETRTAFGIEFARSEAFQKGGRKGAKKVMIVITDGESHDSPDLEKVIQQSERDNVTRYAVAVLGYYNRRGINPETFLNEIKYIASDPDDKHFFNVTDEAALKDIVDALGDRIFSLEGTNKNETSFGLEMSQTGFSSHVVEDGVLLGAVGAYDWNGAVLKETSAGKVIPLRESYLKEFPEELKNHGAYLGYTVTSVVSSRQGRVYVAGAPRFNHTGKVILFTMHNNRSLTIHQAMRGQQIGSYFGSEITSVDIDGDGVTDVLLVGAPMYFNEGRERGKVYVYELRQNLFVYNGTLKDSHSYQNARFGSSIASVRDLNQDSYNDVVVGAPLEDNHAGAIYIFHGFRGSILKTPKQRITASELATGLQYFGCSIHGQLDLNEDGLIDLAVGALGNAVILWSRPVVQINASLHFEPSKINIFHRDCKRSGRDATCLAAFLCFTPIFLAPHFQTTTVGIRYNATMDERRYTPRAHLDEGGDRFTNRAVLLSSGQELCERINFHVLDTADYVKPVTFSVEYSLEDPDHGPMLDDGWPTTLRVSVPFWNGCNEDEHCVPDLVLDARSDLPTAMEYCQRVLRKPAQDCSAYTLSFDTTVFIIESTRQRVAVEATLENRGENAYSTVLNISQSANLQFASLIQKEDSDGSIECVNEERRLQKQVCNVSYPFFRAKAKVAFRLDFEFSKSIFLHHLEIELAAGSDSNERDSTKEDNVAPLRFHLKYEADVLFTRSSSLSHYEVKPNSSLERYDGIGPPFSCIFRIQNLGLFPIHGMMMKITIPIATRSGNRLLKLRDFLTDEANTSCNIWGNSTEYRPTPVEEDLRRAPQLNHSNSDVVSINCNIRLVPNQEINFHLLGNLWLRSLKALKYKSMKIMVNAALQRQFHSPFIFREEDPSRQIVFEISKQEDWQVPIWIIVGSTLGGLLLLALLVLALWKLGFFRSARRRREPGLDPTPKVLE
Briefly: co-IP; 100 µg total proteins immunoprecipitated with IP-grade integrin α11 antibody or IgG (1 mg/mL), 16 h at 4 °C; Protein A agarose beads 4 h at 4 °C; washed with PBS; western blot for integrin β1.

As for “Integrin β1 (from UniProt P05556 21-798) (receptor)”, the binding result is “binds”.

The record behind these values is PMC11046805.
